Taken from: PubChem BioAssay AID1671195 (Yale University, 2021)

Screen: 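Regulators of LDL receptor activity judged by labelled LDL uptake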 (primary screen)
Cell system: human Huh7 hepatoma cells
Reagent: siRNA pool against human genes, 18 nM
Time to read-out: about 2 to 2.5 days of knockdown, then 8 h LDL uptake
Conditions: DiI-labelled LDL at 30 µg/ml for 8 h, in lipoprotein-deficient serum medium
Read-out: 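Per-cell DiI-LDL intensity by automated imaging; well means scaled to the plate median and given as a robust z-score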
Scale: robust z-score: higher = more LDL uptake after knockdown
Rule for the call: 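Active when two or more replicates show a robust z-score above 2 or below -2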
The deposit covers about 22,000 reagents; this is a random part of them. Over the whole deposit, about 1,510 (6.9%) are marked active. 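Active includes knockdowns raising or lowering LDL uptake; positive z-scores mean more uptake, negative mean less.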

Target gene	robust z-score, replicate 1	robust z-score, replicate 2	robust z-score, replicate 3	Outcome
HELQ	0.331	1.36	0.502	inactive
GALNT16	-1.46	0.677	-1.51	inactive
IL10	1.19	1.71	1.5	inactive
VIPR1	-0.691	-0.963	-1.01	inactive
CCR8	-0.738	0.244	-0.757	inactive
CTCFL	-1.02	-1.06	-1.4	inactive
USP32	-1.19	-1.6	-1.07	inactive
SERPINF2	0.0734	-0.0508	0.567	inactive
KRT31	1.17	-0.514	0.332	inactive
TJP2	0.0909	-0.343	-0.0701	inactive
OR4S2	-0.44	-0.00992	0.0977	inactive
DKFZP586K1520 (retired record)	0.128	1.2	-0.47	inactive
SRGAP2B	-0.0421	0.134	-0.0358	inactive
MYH11	0.461	-0.353	-0.0195	inactive
IGFBP2	-0.98	-1.59	-1.32	inactive
EYA3	0.224	-0.34	-0.61	inactive
ANKRD13D	0.0825	0.000958	0.375	inactive
SQSTM1	-1.71	-0.915	-1.5	inactive
CAMK2G	0.446	-0.0955	2	inactive
PRSS54	-1.32	-1.55	-1.64	inactive
STX1B	-0.556	-0.35	0.0529	inactive
EZRP1	-0.169	-0.156	0.264	inactive
LOC440599 (retired record)	-1.76	-1.71	-1.54	inactive
ZNF549	-1.45	-1.56	-1.56	inactive
CELA2A	-0.841	0.861	-0.192	inactive
DST	-0.17	0.0772	-0.632	inactive
CPM	-1.15	-1.33	-0.667	inactive
EIF2AK2	0.00864	1.36	0.974	inactive

Entries listed so far whose gene name begins with E or e:
Target gene	robust z-score, replicate 1	robust z-score, replicate 2	robust z-score, replicate 3	Outcome
EYA3	0.224	-0.34	-0.61	inactive
EZRP1	-0.169	-0.156	0.264	inactive
EIF2AK2	0.00864	1.36	0.974	inactive
